Measured values: the supplement of paper PMC10849652
The other results are listed elsewhere or left out. Residues, ends and D or L forms follow the SMILES beside them. *: point of attachment. Cbz = O=C(OCc1ccccc1)*

The chains behind the UniProt entries cited, without tags or fusion partners. Where a name states a change or a piece, a line headed by the entry shows the natural chain unless it says otherwise.
UniProt Q15042: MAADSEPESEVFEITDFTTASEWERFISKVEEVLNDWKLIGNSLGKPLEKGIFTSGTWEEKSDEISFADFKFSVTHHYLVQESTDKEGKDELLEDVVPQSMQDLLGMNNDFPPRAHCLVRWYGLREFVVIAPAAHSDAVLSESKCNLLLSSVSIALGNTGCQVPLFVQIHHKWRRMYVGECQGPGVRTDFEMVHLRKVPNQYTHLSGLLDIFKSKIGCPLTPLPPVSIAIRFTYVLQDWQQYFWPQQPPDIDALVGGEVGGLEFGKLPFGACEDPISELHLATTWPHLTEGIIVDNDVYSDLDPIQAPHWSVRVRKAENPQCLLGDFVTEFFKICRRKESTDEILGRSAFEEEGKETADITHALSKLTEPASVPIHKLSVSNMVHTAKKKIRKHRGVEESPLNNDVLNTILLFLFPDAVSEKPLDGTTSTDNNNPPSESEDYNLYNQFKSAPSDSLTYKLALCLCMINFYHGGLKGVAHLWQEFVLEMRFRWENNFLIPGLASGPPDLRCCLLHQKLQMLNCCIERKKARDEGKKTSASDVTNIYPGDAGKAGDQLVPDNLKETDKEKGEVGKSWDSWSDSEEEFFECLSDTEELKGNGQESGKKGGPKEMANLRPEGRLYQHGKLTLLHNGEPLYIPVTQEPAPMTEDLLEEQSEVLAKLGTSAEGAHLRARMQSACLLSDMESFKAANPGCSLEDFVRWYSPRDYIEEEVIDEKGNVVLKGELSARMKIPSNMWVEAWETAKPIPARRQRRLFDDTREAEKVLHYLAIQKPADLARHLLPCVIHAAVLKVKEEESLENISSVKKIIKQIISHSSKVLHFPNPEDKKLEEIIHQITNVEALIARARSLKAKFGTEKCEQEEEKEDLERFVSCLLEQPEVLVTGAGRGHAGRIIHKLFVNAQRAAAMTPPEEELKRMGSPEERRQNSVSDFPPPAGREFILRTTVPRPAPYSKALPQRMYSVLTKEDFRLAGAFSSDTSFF
UniProt P61018: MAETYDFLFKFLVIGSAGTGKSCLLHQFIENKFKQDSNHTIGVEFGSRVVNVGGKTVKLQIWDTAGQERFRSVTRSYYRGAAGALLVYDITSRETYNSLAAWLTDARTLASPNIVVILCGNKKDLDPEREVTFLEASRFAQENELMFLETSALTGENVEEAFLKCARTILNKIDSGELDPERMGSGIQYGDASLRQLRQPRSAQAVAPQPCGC
UniProt Q9H2T7: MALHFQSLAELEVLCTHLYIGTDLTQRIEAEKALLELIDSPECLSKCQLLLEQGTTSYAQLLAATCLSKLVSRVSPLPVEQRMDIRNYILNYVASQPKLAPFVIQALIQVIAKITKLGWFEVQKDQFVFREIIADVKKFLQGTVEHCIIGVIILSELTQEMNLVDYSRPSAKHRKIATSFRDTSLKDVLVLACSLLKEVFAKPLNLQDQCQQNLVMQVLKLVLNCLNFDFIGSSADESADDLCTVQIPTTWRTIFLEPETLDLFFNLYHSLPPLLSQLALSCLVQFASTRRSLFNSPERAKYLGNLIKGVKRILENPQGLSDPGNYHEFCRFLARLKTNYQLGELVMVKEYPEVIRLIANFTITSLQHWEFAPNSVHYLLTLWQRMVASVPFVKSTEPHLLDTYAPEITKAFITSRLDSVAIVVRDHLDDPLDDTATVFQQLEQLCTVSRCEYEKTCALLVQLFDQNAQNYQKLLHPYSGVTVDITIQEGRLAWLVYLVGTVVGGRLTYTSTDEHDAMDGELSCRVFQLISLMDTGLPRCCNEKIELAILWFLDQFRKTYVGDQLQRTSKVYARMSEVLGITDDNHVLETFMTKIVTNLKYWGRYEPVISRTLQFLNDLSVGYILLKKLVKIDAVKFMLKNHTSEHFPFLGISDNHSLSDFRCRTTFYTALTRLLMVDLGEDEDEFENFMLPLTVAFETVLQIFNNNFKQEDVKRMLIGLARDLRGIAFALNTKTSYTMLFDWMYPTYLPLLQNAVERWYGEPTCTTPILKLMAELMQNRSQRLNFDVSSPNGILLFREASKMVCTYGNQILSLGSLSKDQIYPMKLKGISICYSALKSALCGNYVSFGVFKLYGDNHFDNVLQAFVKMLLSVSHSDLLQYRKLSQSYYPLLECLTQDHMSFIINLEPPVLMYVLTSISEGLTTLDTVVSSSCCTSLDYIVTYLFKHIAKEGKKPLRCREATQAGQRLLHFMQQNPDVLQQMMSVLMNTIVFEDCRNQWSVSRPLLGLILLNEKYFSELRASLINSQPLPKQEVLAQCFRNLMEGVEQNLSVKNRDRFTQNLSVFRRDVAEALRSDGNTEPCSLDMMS
UniProt Q15771: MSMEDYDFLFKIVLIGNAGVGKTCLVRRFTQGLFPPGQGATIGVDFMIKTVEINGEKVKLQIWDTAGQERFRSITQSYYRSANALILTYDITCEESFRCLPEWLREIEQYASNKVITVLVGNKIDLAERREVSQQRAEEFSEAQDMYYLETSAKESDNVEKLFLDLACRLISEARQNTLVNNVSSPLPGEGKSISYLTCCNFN
UniProt Q13636: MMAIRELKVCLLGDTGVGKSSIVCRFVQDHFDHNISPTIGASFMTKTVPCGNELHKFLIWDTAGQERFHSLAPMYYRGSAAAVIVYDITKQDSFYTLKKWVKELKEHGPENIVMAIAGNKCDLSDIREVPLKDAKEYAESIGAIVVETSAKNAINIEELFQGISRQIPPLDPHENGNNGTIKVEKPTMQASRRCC
UniProt Q16576, whole entry, looked up: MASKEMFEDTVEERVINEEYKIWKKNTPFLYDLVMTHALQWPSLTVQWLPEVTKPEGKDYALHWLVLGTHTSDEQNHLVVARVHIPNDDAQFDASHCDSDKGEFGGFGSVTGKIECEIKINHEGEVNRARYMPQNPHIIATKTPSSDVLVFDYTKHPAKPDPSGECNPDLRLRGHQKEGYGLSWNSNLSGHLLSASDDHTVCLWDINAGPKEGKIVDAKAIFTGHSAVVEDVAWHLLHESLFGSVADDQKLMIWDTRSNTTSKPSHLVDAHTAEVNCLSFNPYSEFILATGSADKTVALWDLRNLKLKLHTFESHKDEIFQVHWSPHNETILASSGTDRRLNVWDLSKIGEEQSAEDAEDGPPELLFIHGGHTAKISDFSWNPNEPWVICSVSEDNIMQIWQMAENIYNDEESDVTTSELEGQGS
UniProt P62491: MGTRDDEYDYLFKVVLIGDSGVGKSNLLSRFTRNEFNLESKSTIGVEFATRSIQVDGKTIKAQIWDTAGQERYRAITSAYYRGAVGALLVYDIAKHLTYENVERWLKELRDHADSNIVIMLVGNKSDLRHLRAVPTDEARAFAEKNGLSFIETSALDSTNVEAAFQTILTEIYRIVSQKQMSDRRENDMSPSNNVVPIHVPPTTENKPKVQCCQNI
UniProt P20336: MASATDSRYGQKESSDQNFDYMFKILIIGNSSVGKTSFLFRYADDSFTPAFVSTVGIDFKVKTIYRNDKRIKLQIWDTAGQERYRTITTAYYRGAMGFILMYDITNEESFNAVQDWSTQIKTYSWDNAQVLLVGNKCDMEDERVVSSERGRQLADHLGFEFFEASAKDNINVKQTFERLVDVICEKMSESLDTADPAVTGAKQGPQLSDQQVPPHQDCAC
UniProt Q6VN20, whole entry, looked up: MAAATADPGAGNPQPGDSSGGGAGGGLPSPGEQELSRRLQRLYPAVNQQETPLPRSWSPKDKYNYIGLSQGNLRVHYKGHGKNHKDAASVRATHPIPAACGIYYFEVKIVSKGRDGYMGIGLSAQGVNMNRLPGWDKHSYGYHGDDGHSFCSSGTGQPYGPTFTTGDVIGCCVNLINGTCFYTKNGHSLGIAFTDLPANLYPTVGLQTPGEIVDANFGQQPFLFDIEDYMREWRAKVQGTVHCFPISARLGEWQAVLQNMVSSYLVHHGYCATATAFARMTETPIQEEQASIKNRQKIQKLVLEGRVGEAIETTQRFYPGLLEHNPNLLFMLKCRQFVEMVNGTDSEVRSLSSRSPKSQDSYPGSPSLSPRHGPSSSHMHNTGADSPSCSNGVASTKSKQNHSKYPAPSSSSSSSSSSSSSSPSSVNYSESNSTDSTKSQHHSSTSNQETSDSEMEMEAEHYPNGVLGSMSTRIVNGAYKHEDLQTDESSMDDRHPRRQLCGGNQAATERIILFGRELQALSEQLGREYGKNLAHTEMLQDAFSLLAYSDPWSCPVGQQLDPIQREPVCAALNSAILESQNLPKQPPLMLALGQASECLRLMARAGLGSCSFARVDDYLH
UniProt P46060: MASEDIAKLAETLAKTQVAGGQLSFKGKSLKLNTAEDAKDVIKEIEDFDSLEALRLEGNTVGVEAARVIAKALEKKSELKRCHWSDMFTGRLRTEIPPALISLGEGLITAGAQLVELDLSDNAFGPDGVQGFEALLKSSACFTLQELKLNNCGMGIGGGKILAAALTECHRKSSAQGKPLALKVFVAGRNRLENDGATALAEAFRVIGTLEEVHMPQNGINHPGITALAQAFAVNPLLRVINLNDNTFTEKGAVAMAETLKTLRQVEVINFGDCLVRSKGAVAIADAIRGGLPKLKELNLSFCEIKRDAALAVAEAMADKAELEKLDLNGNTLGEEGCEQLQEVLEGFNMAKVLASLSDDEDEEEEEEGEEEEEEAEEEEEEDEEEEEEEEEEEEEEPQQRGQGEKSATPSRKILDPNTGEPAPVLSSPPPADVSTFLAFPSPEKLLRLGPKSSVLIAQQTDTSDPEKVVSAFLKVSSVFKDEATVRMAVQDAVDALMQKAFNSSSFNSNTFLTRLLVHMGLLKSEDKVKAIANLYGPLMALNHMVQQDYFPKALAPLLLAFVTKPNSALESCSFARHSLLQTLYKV
UniProt P10114: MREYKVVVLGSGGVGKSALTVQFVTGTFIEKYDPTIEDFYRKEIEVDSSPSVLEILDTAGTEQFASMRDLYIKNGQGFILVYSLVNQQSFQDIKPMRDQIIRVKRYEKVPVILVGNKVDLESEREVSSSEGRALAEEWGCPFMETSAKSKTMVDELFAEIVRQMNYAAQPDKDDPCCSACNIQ
UniProt Q8TEU7: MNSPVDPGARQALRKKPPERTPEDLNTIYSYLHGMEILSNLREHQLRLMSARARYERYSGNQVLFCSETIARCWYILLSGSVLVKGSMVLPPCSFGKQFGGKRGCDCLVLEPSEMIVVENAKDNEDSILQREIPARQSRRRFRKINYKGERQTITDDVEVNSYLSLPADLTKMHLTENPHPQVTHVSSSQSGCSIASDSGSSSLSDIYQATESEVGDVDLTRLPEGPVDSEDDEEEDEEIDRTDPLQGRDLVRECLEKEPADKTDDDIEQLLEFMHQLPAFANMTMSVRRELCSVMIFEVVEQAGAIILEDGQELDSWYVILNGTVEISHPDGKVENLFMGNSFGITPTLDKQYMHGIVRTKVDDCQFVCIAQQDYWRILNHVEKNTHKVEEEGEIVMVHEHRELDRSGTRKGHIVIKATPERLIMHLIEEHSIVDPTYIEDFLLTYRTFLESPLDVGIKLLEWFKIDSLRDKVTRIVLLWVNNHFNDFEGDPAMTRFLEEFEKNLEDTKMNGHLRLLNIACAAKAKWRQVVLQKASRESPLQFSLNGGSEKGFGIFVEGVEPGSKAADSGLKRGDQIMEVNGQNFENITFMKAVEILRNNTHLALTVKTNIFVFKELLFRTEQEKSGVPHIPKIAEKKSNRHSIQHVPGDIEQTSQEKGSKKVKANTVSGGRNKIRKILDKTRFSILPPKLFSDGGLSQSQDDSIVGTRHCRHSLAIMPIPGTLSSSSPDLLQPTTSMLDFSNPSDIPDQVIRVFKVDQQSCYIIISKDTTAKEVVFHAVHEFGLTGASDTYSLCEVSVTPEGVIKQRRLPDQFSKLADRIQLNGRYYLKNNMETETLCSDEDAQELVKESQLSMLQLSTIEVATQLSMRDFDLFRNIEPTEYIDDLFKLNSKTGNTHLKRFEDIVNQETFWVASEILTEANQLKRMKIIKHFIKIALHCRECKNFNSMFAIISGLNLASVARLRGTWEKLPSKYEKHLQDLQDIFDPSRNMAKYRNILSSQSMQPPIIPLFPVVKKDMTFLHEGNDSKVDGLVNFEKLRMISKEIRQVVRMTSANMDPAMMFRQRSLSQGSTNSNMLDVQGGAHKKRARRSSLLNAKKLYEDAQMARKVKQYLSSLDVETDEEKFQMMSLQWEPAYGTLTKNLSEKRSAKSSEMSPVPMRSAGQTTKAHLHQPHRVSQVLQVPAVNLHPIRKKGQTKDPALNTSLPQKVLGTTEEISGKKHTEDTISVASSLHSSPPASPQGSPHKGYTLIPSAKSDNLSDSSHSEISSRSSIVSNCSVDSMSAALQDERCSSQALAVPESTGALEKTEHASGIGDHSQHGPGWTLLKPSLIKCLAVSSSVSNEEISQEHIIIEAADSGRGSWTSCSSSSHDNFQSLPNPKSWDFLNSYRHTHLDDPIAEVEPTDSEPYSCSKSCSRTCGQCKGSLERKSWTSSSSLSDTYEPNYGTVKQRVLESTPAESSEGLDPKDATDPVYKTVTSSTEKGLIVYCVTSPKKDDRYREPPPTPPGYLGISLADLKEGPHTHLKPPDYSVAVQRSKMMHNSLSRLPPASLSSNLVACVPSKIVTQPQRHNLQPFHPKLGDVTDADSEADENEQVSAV

Legend:
Assay in all cases: log2 fold change, soluble protein after heating vs DMSO (PISA); higher = thermal stabilisation; K562 cells, 10 uM, 30 min; active = over 0.2 and 3.5 SD of the protein, either way, in both replicates (recomputed)
IRAK-1-4 Inhibitor I = compound: C1COCCN1CCN2C3=CC=CC=C3N=C2NC(=O)C4=CC(=CC=C4)[N+](=O)[O-] [IRAK-1-4 Inhibitor I]
Summary of the method: (§1)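 Soluble protein was defined as the supernatant after 21,000xg for 90 min. It came from K562 cells at 2×10^6 cells/mL given 10 μM compound for 30 min, heated in aliquots for 3 min across 48°C-58°C, pooled, and extracted in PBS with 0.5% NP-40 at 4°C, and was quantified by TMTpro 16plex LC-MS/MS with equalised channel sums. Thermal stability against control samples, from duplicates, is reported as log2 fold change.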

ibrutinib = compound: C=CC(=O)N1CCC[C@@H](n2nc(-c3ccc(Oc4ccccc4)cc3)c3c(N)ncnc32)C1 [ibrutinib]
Summary of the method: as §1

[1] = compound: CC(=O)c1cnc2ccc(-c3cc(Cl)c(O)c(Cl)c3)nc2c1N[C@H]1CC[C@H](CN(C)C)CC1
Summary of the method: as §1

ralimetinib = compound: CC(C)(C)Cn1c(N)nc2ccc(-c3[nH]c(C(C)(C)C)nc3-c3ccc(F)cc3)nc21 [ralimetinib]
Summary of the method: as §1

[2] = compound: CC(C)(O)CC(=O)NCCn1ccc2ncnc(Nc3ccc(Oc4cccc(C(F)(F)F)c4)c(Cl)c3)c21
Summary of the method: as §1

[3] = compound: CC(C)C1=C2N=C(C=C(N2N=C1)NCC3=CC=CC=C3)NCCCCCCN
Summary of the method: as §1

[4] = compound: CC(C)C[C@@H](C=O)NC(=O)[C@H](CC(C)C)NC(=O)[C@H](CC(C)C)NC(=O)OCc1ccccc1
Summary of the method: as §1

pinometostat = compound: CC(C)N(C[C@H]1O[C@@H](n2cnc3c(N)ncnc32)[C@H](O)[C@@H]1O)[C@H]1C[C@@H](CCc2nc3cc(C(C)(C)C)ccc3[nH]2)C1 [pinometostat]
Summary of the method: as §1

[5] = compound: CC1=C(C(CC(=O)N1)C2=CC=C(C=C2)C(F)(F)F)C(=O)NC3=C(C=C4C(=C3)C=NN4)F
Summary of the method: as §1

[6] = compound: CC1=C(C2=C(C=C1)C(=O)C3=CC=CC=C3N2CCCN)C
Summary of the method: as §1

Measured: log2 fold change

RAB3GAP1 (UniProt Q15042)
inactive: IRAK-1-4 Inhibitor I -0.111 | ibrutinib -0.007 | [1] -0.034 | ralimetinib 0.119 | [2] -0.074 | [3] -0.198 | [4] 0.17 | pinometostat 0.218 | [5] 0.038 | [6] -0.016

RAD51AP1 (UniProt Q96B01)
inactive: IRAK-1-4 Inhibitor I 0.02 | ibrutinib 0.002 | [1] 0.034 | ralimetinib -0.079 | [2] -0.045 | [3] 0.03 | [4] 0.136 | pinometostat 0.012 | [5] 0.017 | [6] -0.167

RAB4B isoform 2 (UniProt P61018)
inactive: IRAK-1-4 Inhibitor I 0.044 | ibrutinib 0.014 | [1] -0.006 | ralimetinib -0.041 | [2] 0.046 | [3] 0.059 | [4] -0.007 | pinometostat -0.027 | [5] -0.029 | [6] 0.027

RANBP17 (UniProt Q9H2T7)
inactive: IRAK-1-4 Inhibitor I 0.017 | ibrutinib 0.081 | [1] 0.01 | ralimetinib -0.041 | [2] 0.162 | [3] 0.004 | [4] -0.01 | pinometostat 0.018 | [5] -0.015 | [6] -0.153

RAB30 (UniProt Q15771)
inactive: IRAK-1-4 Inhibitor I -0.051 | ibrutinib 0.071 | [1] 0.085 | ralimetinib 0.057 | [2] 0.065 | [3] -0.107 | [4] 0.017 | pinometostat -0.061 | [5] -0.03

RAB31 (UniProt Q13636)
inactive: IRAK-1-4 Inhibitor I 0.015 | ibrutinib 0.038 | [1] 0.025 | ralimetinib -0.019 | [2] -0.011 | [3] 0.081 | [4] -0.014 | pinometostat -0.035 | [5] -0.008 | [6] -0.018

RABIF (UniProt P47224)
inactive: IRAK-1-4 Inhibitor I 0.088 | ibrutinib 0.042 | [1] 0.026 | ralimetinib 0.013 | [2] 0.048 | [3] 0.154 | [4] -0.036 | pinometostat 0 | [5] 0.038 | [6] -0.024

RAB12, A0A3B3ITT1
inactive: IRAK-1-4 Inhibitor I 0.004 | ibrutinib -0.013 | [1] -0.003 | ralimetinib 0.034 | [2] 0.023 | [3] 0.02 | [4] -0.074 | pinometostat -0.035 | [5] 0.015 | [6] 0.043

RBBP7 isoform 2 (UniProt Q16576)
inactive: IRAK-1-4 Inhibitor I 0.022 | ibrutinib -0.002 | [1] -0.022 | ralimetinib -0.094 | [2] 0.058 | [3] 0.031 | [4] -0.058 | pinometostat -0.035 | [5] -0.044 | [6] -0.05

RAB3C (UniProt Q96E17)
inactive: IRAK-1-4 Inhibitor I 0.072 | ibrutinib 0.051 | [1] 0.01 | ralimetinib -0.048 | [2] 0.052 | [3] 0.032 | [4] -0.008 | pinometostat 0.014 | [5] 0.088 | [6] -0.047

RAD23A (UniProt P54725)
inactive: IRAK-1-4 Inhibitor I 0.04 | ibrutinib -0.01 | [1] -0.018 | ralimetinib -0.043 | [2] -0.016 | [3] 0.055 | [4] 0.022 | pinometostat -0.036 | [5] 0.012 | [6] -0.031

RAB11A (UniProt P62491)
inactive: IRAK-1-4 Inhibitor I 0.03 | ibrutinib 0.045 | [1] -0.025 | ralimetinib -0.019 | [2] -0.114 | [3] 0.065 | [4] 0.07 | pinometostat -0.041 | [5] -0.025 | [6] -0.024

RACK1 (UniProt P63244)
inactive: IRAK-1-4 Inhibitor I -0.01 | ibrutinib 0.015 | [1] 0.019 | ralimetinib -0.007 | [2] 0.007 | [3] -0.024 | [4] -0.09 | pinometostat -0.059 | [5] -0.019 | [6] -0.002

RAB2B (UniProt Q8WUD1)
inactive: IRAK-1-4 Inhibitor I 0.032 | ibrutinib 0.007 | [1] 0.04 | ralimetinib 0.029 | [2] -0.004 | [3] 0.028 | [4] -0.036 | pinometostat -0.035 | [5] -0.031 | [6] 0

RAB3A (UniProt P20336)
inactive: IRAK-1-4 Inhibitor I -0.004 | ibrutinib 0.001 | [1] -0.043 | ralimetinib -0.127 | [2] -0.145 | [3] 0.111 | [4] -0.089 | pinometostat 0 | [5] -0.03 | [6] 0.014

RANBP10 (UniProt Q6VN20)
inactive: IRAK-1-4 Inhibitor I -0.024 | ibrutinib 0 | [1] 0.017 | ralimetinib 0.057 | [2] -0.024 | [3] 0.036 | [4] 0.079 | pinometostat -0.011 | [5] 0.122 | [6] 0.013

RAB24 (UniProt Q969Q5)
inactive: IRAK-1-4 Inhibitor I 0.037 | ibrutinib 0.051 | [1] 0.037 | ralimetinib -0.082 | [2] 0.025 | [3] 0.015 | [4] -0.004 | pinometostat -0.026 | [5] 0.004 | [6] -0.032

RBBP7 (UniProt Q16576)
inactive: IRAK-1-4 Inhibitor I -0.003 | ibrutinib -0.02 | [1] 0.015 | ralimetinib -0.176 | [2] 0.023 | [3] 0.049 | [4] -0.04 | pinometostat -0.111 | [5] -0.001

Looked up one by one from above (2):
RANBP10 (UniProt Q6VN20)
inactive: IRAK-1-4 Inhibitor I -0.024 | ibrutinib 0 | [1] 0.017 | ralimetinib 0.057 | [2] -0.024 | [3] 0.036 | [4] 0.079 | pinometostat -0.011 | [5] 0.122 | [6] 0.013

RAB24 (UniProt Q969Q5)
inactive: IRAK-1-4 Inhibitor I 0.037 | ibrutinib 0.051 | [1] 0.037 | ralimetinib -0.082 | [2] 0.025 | [3] 0.015 | [4] -0.004 | pinometostat -0.026 | [5] 0.004 | [6] -0.032

The results go on:

RABGGTB (UniProt P53611)
inactive: IRAK-1-4 Inhibitor I 0.032 | ibrutinib -0.019 | [1] -0.028 | ralimetinib -0.038 | [2] -0.035 | [3] 0.028 | [4] 0.035 | pinometostat -0.019 | [5] 0.004 | [6] -0.012

RALB isoform 2 (UniProt P11234)
inactive: IRAK-1-4 Inhibitor I 0.017 | ibrutinib 0.028 | [1] -0.04 | ralimetinib -0.074 | [2] 0.039 | [3] 0.078 | [4] -0.016 | pinometostat -0.082 | [5] -0.008 | [6] 0.113

RANGAP1 (UniProt P46060)
inactive: IRAK-1-4 Inhibitor I -0.034 | ibrutinib -0.04 | [1] 0.019 | ralimetinib 0.047 | [2] -0.066 | [3] -0.116 | [4] 0.026 | pinometostat 0.044 | [5] -0.001 | [6] 0.039

RAP2A (UniProt P10114)
inactive: IRAK-1-4 Inhibitor I 0.047 | ibrutinib 0.055 | [1] -0.116 | ralimetinib -0.007 | [2] 0.016 | [3] 0.155 | [4] -0.026 | pinometostat -0.048 | [5] -0.042 | [6] 0.034

RABGAP1 (UniProt Q9Y3P9)
inactive: IRAK-1-4 Inhibitor I -0.008 | ibrutinib 0.002 | [1] -0.036 | ralimetinib 0.023 | [2] 0.017 | [3] -0.038 | [4] 0.035 | pinometostat 0.008 | [5] 0.024 | [6] 0.004

RAB1A (UniProt P62820)
inactive: IRAK-1-4 Inhibitor I 0.04 | ibrutinib -0.001 | [1] 0.006 | ralimetinib -0.005 | [2] -0.009 | [3] 0.057 | [4] -0.029 | pinometostat -0.086 | [5] 0.01 | [6] 0.012

RAB32 (UniProt Q13637)
inactive: IRAK-1-4 Inhibitor I 0.019 | ibrutinib 0.009 | [1] -0.004 | ralimetinib -0.11 | [2] -0.025 | [3] 0.071 | [4] -0.107 | pinometostat -0.003 | [5] 0.034 | [6] 0.028

RAPGEF6 isoform 4 (UniProt Q8TEU7)
inactive: IRAK-1-4 Inhibitor I 0.01 | ibrutinib -0.001 | [1] -0.1 | ralimetinib 0.09 | [2] 0.006 | [3] 0.02 | [4] 0.092 | pinometostat 0.07 | [5] -0.031 | [6] -0.282

RACGAP1 (UniProt Q9H0H5)
inactive: IRAK-1-4 Inhibitor I -0.11 | ibrutinib -0.154 | [1] -0.144 | ralimetinib 0.087 | [2] -0.167 | [3] -0.284 | [4] 0.137 | pinometostat 0.165 | [5] -0.107 | [6] 0.036
